Experimental findings from patent publication EP3173487A1 (priority 2015, dated 2017) are described below.

For the data set, the system named is haloalkane dehalogenase LinB. Type of data set: biochemical, Sphingobium japonicum UT26.

Regarding `ClCCOCCCl` [bis(2-chloroethyl) ether], the “detected visually down to” value turned out to be 2.0 mg/L and the “saturation of the signal at concentrations of analyte” value was “above 2 mg/L”.
